Measured values taken from patent EP1671630A2, “L-Arginine based formulations for treating diseases and methods of using the same” (Angiogenix, Inc., priority 1999, dated 2000).

System: bovine aortic endothelial cells
Assay: Characterization of L-arginine transport system (uptake of [3H]-LA)
Assay type: cell-based

Compound | share of [^3H]-LA delivered to cells by y+ transporter (BAEC, 20nM [^3H]-LA) | share of total transport by B^α+ transporter system (BAEC, average) [%] | passive diffusion as a percent of total cellular LA uptake (15 minutes of uptake) [%] | passive diffusion as a percent of total cellular LA uptake (60 minutes of uptake) [%]
L-[2,3,4,5-^3H]-arginine monohydrochloride [[^3H]-LA] | ~ 85% | 10 |  | 
N=C(N)NCCC[C@H](N)C(=O)O [L-arginine] |  |  | 5 | 1.5
